Laboratory results reported in the supplement of paper PMC9015667.
Counter-ions that a name gives are not always drawn. The list shows a part of the results. Many values rest on one well or one pass, so single values are uncertain.

Tests used:
Experiment in all cases: reduction in cell viability relative to untreated/vehicle; higher = more growth inhibition
Settings in all cases: 200 nM; 72 h
M229P = system: M229P (parental melanoma line)
M229R = system: M229R (matched melanoma line resistant to BRAF inhibitors)
M238P = system: M238P (parental melanoma line)
M238R = system: M238R (matched melanoma line resistant to BRAF inhibitors)
M249P = system: M249P (parental melanoma line)
M249R = system: M249R (matched melanoma line resistant to BRAF inhibitors)
UACC62P = system: UACC62P (parental melanoma line)
UACC62R = system: UACC62R (matched melanoma line resistant to BRAF inhibitors)

| Structure (SMILES) | reduction in cell viability (M229P) | reduction in cell viability (M229R) | reduction in cell viability (M238P) | reduction in cell viability (M238R) | reduction in cell viability (M249P) | reduction in cell viability (M249R) | reduction in cell viability (UACC62P) | reduction in cell viability (UACC62R) |
| --- | --- | --- | --- | --- | --- | --- | --- | --- |
| COC(=O)[C@@H](N)CCCNC(=N)N[N+](=O)[O-] | < 0% | < 0% | < 0% | < 0% | < 0% | < 0% | 13.7% | < 0% |
| C/C(=C\c1csc(C)n1)[C@@H]1C[C@@H]2O[C@@H]2CCC[C@H](C)[C@H](O)[C@@H](C)C(=O)C(C)(C)[C@@H](O)CC(=O)O1 [Epothilone A] | 37.4% | 59.4% | 81.8% | 85.9% | 68.4% | 59.2% | 51.2% | 87% |
| O=C(O)CNC(=O)c1c(O)c2ccccc2n(Cc2ccccc2)c1=O | < 0% | < 0% | < 0% | < 0% | < 0% | < 0% | 1% | < 0% |
| Cc1ccccc1-n1c(Cn2cnc3c(N)ncnc32)nc2cccc(C)c2c1=O | < 0% | < 0% | < 0% | < 0% | < 0% | < 0% | < 0% | < 0% |
| COc1ccc2c(c1)[C@@]13CCCC[C@H]1[C@@H](C2)N(C)CC3 [Levomethorphan] | < 0% | < 0% | < 0% | < 0% | < 0% | < 0% | < 0% | < 0% |
| Cc1ccccn1.N.[Cl-].[Cl-].[Pt+2] [Picoplatin] | < 0% | < 0% | < 0% | < 0% | < 0% | < 0% | 14.4% | < 0% |
| CC1=C(O)C(=O)C=C2C1=CC=C1[C@@]2(C)CC[C@@]2(C)[C@@H]3C[C@](C)(C(=O)O)CC[C@]3(C)CC[C@]12C [Tripterin] | < 0% | < 0% | 20.2% | 27.4% | < 0% | < 0% | 6.45% | 4.69% |
| Cn1c(CCCC(=O)O)nc2cc(N(CCCl)CCCl)ccc21 [Bendamustine] | < 0% | < 0% | < 0% | < 0% | 0.6% | < 0% | 5.89% | < 0% |
| CC(C)c1cccc(C(C)C)c1O [Propofol] | < 0% | < 0% | < 0% | < 0% | < 0% | < 0% | < 0% | < 0% |
| CC1(C)CC(O)CC(C)(C)N1[O] [Tempol] | < 0% | < 0% | < 0% | < 0% | < 0% | < 0% | < 0% | < 0% |
| CC1C=CC=CCCC=CC=CC=CC=CC(OC2OC(C)C(O)C(N)C2O)CC2OC(O)(CC(O)C(O)CCC(O)CC(O)CC(O)CC(=O)OC(C)C(C)C1O)CC(O)C2C(=O)O (configuration not stated) [Nystatin] | < 0% | < 0% | < 0% | < 0% | < 0% | < 0% | < 0% | < 0% |
| CC1=C2C[C@H]3[C@@H](CC=C4C[C@@H](O)CC[C@@]43C)[C@@H]2CC[C@]12O[C@@H]1C[C@H](C)CN[C@H]1[C@H]2C [Cyclopamine] | < 0% | < 0% | < 0% | < 0% | < 0% | < 0% | < 0% | < 0% |
| CC(NC(C)(C)C)C(=O)c1cccc(Cl)c1 (configuration not stated) [Bupropion hydrochloride] | < 0% | < 0% | < 0% | < 0% | < 0% | < 0% | < 0% | < 0% |
| CC(C)C[C@H](CN)CC(=O)O [Pregabalin] | < 0% | < 0% | < 0% | < 0% | < 0% | < 0% | < 0% | < 0% |
| Oc1ccc2c3c1O[C@H]1c4[nH]c5c(c4C[C@@]4(O)[C@@H](C2)N(CC2CC2)CC[C@]314)C[C@@]1(O)[C@H]2Cc3ccc(O)c4c3[C@@]1(CCN2CC1CC1)[C@H]5O4 [nor-Binaltorphimine] | < 0% | < 0% | < 0% | < 0% | < 0% | < 0% | < 0% | < 0% |
| C[C@]12COC(=O)C[C@@H]1CC[C@@H]1[C@@H]2CC[C@@]2(C)[C@H]1CC[C@]2(C)O [Oxandrolone] | < 0% | < 0% | < 0% | < 0% | < 0% | < 0% | 1.29% | < 0% |
| O=C(Oc1ccc([N+](=O)[O-])cc1)N1CCN(Cc2cccc(Oc3ccccc3)c2)CC1 | < 0% | < 0% | < 0% | < 0% | < 0% | 2.43% | 3.64% | < 0% |
| O=C(O)CCCc1ccc(N(CCCl)CCCl)cc1 [Chlorambucil] | < 0% | < 0% | < 0% | < 0% | < 0% | < 0% | < 0% | < 0% |
| O=C(O)c1nn(Cc2ccc(Cl)cc2Cl)c2ccccc12 [Lonidamine] | < 0% | < 0% | < 0% | < 0% | 13.4% | < 0% | < 0% | < 0% |
| COc1ccc2c(c1)CN(C)CC2c1ccc(Cl)c(Cl)c1 (configuration not stated) [Diclofensine] | < 0% | < 0% | < 0% | < 0% | < 0% | < 0% | < 0% | < 0% |
| CC1=C(CC/C(C)=C/CCC2=CC[C@H](C3=CC(=O)O[C@H]3O)O[C@H]2O)C(C)(C)CCC1 [Manoalide] | < 0% | < 0% | < 0% | < 0% | < 0% | < 0% | < 0% | < 0% |
| CCOP(=O)(OCC)C(C)NC(=O)N(CCCl)N=O (configuration not stated) [Fotemustine] | < 0% | < 0% | < 0% | < 0% | < 0% | < 0% | 10.8% | < 0% |
| C[C@@H]1CC[C@H]2[C@@H](C)C(=O)O[C@@H]3O[C@@]4(C)CC[C@@H]1[C@]32OO4 [Artemisinin] | < 0% | < 0% | < 0% | < 0% | < 0% | 5.44% | < 0% | < 0% |
| CN1CCN(C(=O)O[C@H]2c3nccnc3C(=O)N2c2ccc(Cl)cn2)CC1 [Eszopiclone] | < 0% | < 0% | < 0% | < 0% | < 0% | 2.15% | < 0% | < 0% |
| C[C@]12CC[C@H]3[C@@H](CCC4=CC(=O)CC[C@@H]43)[C@@H]1CC[C@@H]2OC(=O)CCc1ccccc1 [Nandrolone phenpropionate] | < 0% | < 0% | < 0% | < 0% | < 0% | < 0% | < 0% | < 0% |
| C#C[C@]1(O)CC[C@H]2[C@@H]3CCC4=CC(=O)CC[C@]4(C)[C@H]3CC[C@@]21C [Ethisterone] | < 0% | < 0% | < 0% | < 0% | < 0% | < 0% | 0.12% | < 0% |
| C[C@@H]1O[C@@H](O[C@@H]2C=C3CC[C@@H]4[C@H](CC[C@]5(C)[C@@H](c6ccc(=O)oc6)CC[C@]45O)[C@@]3(C)CC2)[C@H](O)[C@H](O)[C@H]1O [Proscillaridin] | 77.5% | 78.7% | 75% | 84.1% | 70.1% | 94.8% | 98.2% | 77.9% |
| CN1C(=O)COc2c(C(=O)NC3CN4CCC3CC4)cc(Cl)cc21 (configuration not stated) [Azasetron] | < 0% | < 0% | < 0% | < 0% | < 0% | < 0% | 4.09% | < 0% |
| CCC(=O)O[C@H]1CC[C@H]2[C@@H]3CCC4=CC(=O)CC[C@]4(C)[C@H]3CC[C@]12C [Testosterone propionate] | < 0% | < 0% | < 0% | < 0% | < 0% | < 0% | < 0% | < 0% |

2 of the compounds above, bar-delimited.
Structure (SMILES) | reduction in cell viability (M229P) | reduction in cell viability (M229R) | reduction in cell viability (M238P) | reduction in cell viability (M238R) | reduction in cell viability (M249P) | reduction in cell viability (M249R) | reduction in cell viability (UACC62P) | reduction in cell viability (UACC62R)
C#C[C@]1(O)CC[C@H]2[C@@H]3CCC4=CC(=O)CC[C@]4(C)[C@H]3CC[C@@]21C [Ethisterone] | < 0% | < 0% | < 0% | < 0% | < 0% | < 0% | 0.12% | < 0%
C[C@@H]1O[C@@H](O[C@@H]2C=C3CC[C@@H]4[C@H](CC[C@]5(C)[C@@H](c6ccc(=O)oc6)CC[C@]45O)[C@@]3(C)CC2)[C@H](O)[C@H](O)[C@H]1O [Proscillaridin] | 77.5% | 78.7% | 75% | 84.1% | 70.1% | 94.8% | 98.2% | 77.9%
